# Measured values reported in the supplement of paper PMC12889115.
# The list shows a part of the results. These are raw signals, not scaled to a control.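 In the initial screen, polymyxin B was used at a concentration that permeabilizes Salmonella's outer membrane but not its inner membrane. Maximum growth was set by DMSO wells with or without polymyxin B. Since plates varied, data were ranked per plate, and compounds giving the lowest OD600 advanced as hits.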
# System: Salmonella enterica serovar Typhimurium SL1344
# Assay: bacterial growth OD600 after 18 h with compound and polymyxin B; higher = more bacterial growth (less inhibition)
# Settings: 50 µM, Mueller-Hinton broth
Structure (SMILES),bacterial growth OD600 (polymyxin B 1 µg/mL),bacterial growth OD600 (polymyxin B 0.75 µg/mL)
CC(C)N(C)C(=O)c1cn(Cc2ccccc2Cl)nn1,1.06,
CC1CN(Cc2ccc3ncccc3c2)Cc2cc(Cl)ccc2O1 (configuration not stated),,0
CC(C)CC1(C2CCN(C(=O)Cc3ccc4c(c3)OCO4)CC2)NC(=O)N(Cc2cccs2)C1=O (configuration not stated),,0.942
Fc1ccc(F)c(CNC2CCCc3c2cnn3-c2ccccc2F)c1 (configuration not stated),,0.786
O=C(c1cn(Cc2ccccc2Cl)nn1)N1CCCCC1CCn1cccn1 (configuration not stated),0.808,
Cc1ccc(CN(C)C(=O)c2cc(COc3ccc(-n4cncn4)cc3)on2)o1,0.699,
Fc1ccccc1Oc1ncccc1CNC1CCSCC1,0.833,
CCOC(=O)C1(CCOc2ccccc2)CCN(C2CCN(C(C)=O)CC2)CC1,0.933,
COc1ccc(CCN2CCCC(CN(C)Cc3ccc4nonc4c3)C2)cc1 (configuration not stated),,0.685
O=C(NCc1ccccc1)c1csc2nc(-c3ccccc3)cn12,0.582,
CCC(=O)Nc1cc(C(=O)N2CCC(c3ccncc3)CC2)c2c(c1)nc(Cc1ccccc1)n2C,,0.846
O=C(c1cc(COc2ccccc2)[nH]n1)N1CCSCC1,0.909,
Cc1cc(C)n(-c2ccc(NC(=O)C3CCN(C(=O)c4ccnn4C)CC3)cc2)n1,0.833,
O=C(NC1CCCCC1)C1CCCN(C2CCN(Cc3ccncc3)CC2)C1 (configuration not stated),0.981,
Cn1cc(CN2C[C@H]3OC(=O)N(CCCc4ccc(F)cc4)[C@H]3C2)cn1,,0.773
O=C(C1CCCC1)N1CCC2(CCCN(Cc3cccc(F)c3F)C2=O)C1 (configuration not stated),0.889,

# Nothing new here: an excerpt of the list.
Structure (SMILES),bacterial growth OD600 (polymyxin B 1 µg/mL),bacterial growth OD600 (polymyxin B 0.75 µg/mL)
CCOC(=O)C1(CCOc2ccccc2)CCN(C2CCN(C(C)=O)CC2)CC1,0.933,
COc1ccc(CCN2CCCC(CN(C)Cc3ccc4nonc4c3)C2)cc1 (configuration not stated),,0.685
O=C(NCc1ccccc1)c1csc2nc(-c3ccccc3)cn12,0.582,
CCC(=O)Nc1cc(C(=O)N2CCC(c3ccncc3)CC2)c2c(c1)nc(Cc1ccccc1)n2C,,0.846
O=C(c1cc(COc2ccccc2)[nH]n1)N1CCSCC1,0.909,
Cc1cc(C)n(-c2ccc(NC(=O)C3CCN(C(=O)c4ccnn4C)CC3)cc2)n1,0.833,
O=C(NC1CCCCC1)C1CCCN(C2CCN(Cc3ccncc3)CC2)C1 (configuration not stated),0.981,
Cn1cc(CN2C[C@H]3OC(=O)N(CCCc4ccc(F)cc4)[C@H]3C2)cn1,,0.773

# Later entries.

Structure (SMILES),bacterial growth OD600 (polymyxin B 1 µg/mL),bacterial growth OD600 (polymyxin B 0.75 µg/mL)
COC(=O)CCCNc1nc(CN2CCCCC2c2nccs2)nc2ccccc12 (configuration not stated),,0.865
COc1ccccc1/C=C/CN1CCC(CO)(CCOc2ccccc2)CC1,0.763,
COCC(=O)Nc1cc(C(=O)N[C@@H](C)c2ccccc2)cc2ncn(CCc3ccccc3)c12,,0.878
O=C(CCC(F)(F)F)N1CCC(C2CCN(Cc3cccnc3)CC2)C1 (configuration not stated),,0.958
COc1cccc(CC(C2CCN(C(=O)Cc3c(C)noc3C)CC2)N(C)C(=O)c2ccsc2)c1 (configuration not stated),,0.833
CN(CCCN1CCOCC1)C(=O)CCN1Cc2ccccc2OC(c2ccccc2)C1 (configuration not stated),,0.802
O=C(CCC1(Cc2ccccc2)CCC(=O)N1)NC[C@H]1CCc2ccccc2O1 (some centres not stated),,0.846
O=C1N(Cc2ccc(F)c(F)c2)CCCC1(O)CNCC1CCCCC1 (configuration not stated),0.268,
CN(C)S(=O)(=O)N1C[C@H]2OC(=O)N(CCc3cccc(Cl)c3)[C@H]2C1,0.877,
Cc1ccccc1C1(CC(=O)N2CCC(c3ccc(F)cc3)C2)CC(=O)N(Cc2cccnc2)C1=O (configuration not stated),,-0.001
Cc1cccc(-n2cc(CN(C)Cc3n[nH]c(=O)[nH]3)c(-c3cccc(F)c3)n2)c1,0.852,
CCN(CC)CCN(C)C(=O)c1ccc(OC2CCN(Cc3ccccn3)CC2)cc1,1.03,
O=C(/C=C/c1ccc(F)c(F)c1)NCC1CC(Cc2ccc(F)cc2)=NO1 (configuration not stated),,0.683
CC(C)[C@H](NC(=O)C1(N(C)Cc2ccccc2)Cc2ccccc2C1)C(N)=O,,0.247
Cc1cc(C)n(CCN(C)c2ccc(-c3nc(C4CC4)no3)cn2)n1,,0.645
CCCn1c(C)c(CC(=O)N2CCOCC2)c2c1CC(C)(C)CC2=O,0.797,
